In PubChem BioAssay AID2417 (National Center for Advancing Translational Sciences (NCATS), 2010):
Hit rate of the full screen: of about 140,000 compounds, about 4,300 (3.1%) were called active. Inconclusive means that the source gave no clear call. Such entries were picked first, then a sample of the others.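 The calls were made as follows: active = readout at or below -70, meaning at least 70% loss of cells showing the perinucleolar compartment, a nuclear body marking cancer cells; inconclusive = readout between -30 and a set limit; inactive = the rest.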

Assay: High Content Assay for Compounds that inhibit the Assembly of the Perinucleolar Compartment;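 also: plate controls were DMSO wells for no effect and camptothecin positive control wells for full effect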
Details: PC3M PTB-GFP, PNC prevalence imaging, 16 h; at 10 µM; hits give low values
Outline: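 Read-out is percentage of cells bearing a perinucleolar compartment, from automated 20x imaging of fixed, Hoechst-stained PC3M PTB-GFP cells. Cells were seeded 4 h, then exposed 16 h to compound (23 nl of library stock) in duplicate plates.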

SMILES	activity change (PNC), negative = inhibition
CC1(C)CC(=O)C2=C(C1)N(c1ccc(F)cc1)C(=O)C2(O)C(F)(F)F (stereo unspecified)	inconclusive: -49.9%
O=C(CSc1ncc(-c2ccccc2)[nH]1)Nc1cccc(O)c1	inconclusive: -58%
O=C(NCCCn1ccnc1)c1cc2ccccc2oc1=O	inactive: -5.93%
COc1ccccc1CNC(=O)/C=C/c1cc2c(cc1Br)OCO2	inconclusive: -56.2%
CCOc1ccc(/C=N/NC(=O)C(C)Sc2ccccn2)cc1OCC (stereo unspecified)	inconclusive: -41.6%
CCCCCCOC(=O)c1ccc(OC(=O)c2cccnc2)cc1	inconclusive: -33.8%
COc1ccc2[nH]cc(C(=O)CN3CCCCC3)c2c1	inactive: 20.8%
O=C(c1cc(C(=O)c2ccco2)cc(C(=O)c2ccco2)c1)c1ccco1	inconclusive: -58.9%
O=C(NC12CC3CC(CC(C3)C1)C2)N1CCC(O)CC1	inconclusive: -47.6%
Cc1ccc(/C(O)=C2\C(=O)C(=O)N(Cc3cccnc3)C2c2ccccc2[N+](=O)[O-])cc1 (stereo unspecified)	inactive: -12.8%
CCCc1noc2c1C(c1ccoc1)C(C#N)=C(N)N2 (stereo unspecified)	inactive: 28.5%
CC1(C)NC(=O)N(CC(O)CN2C(=O)NC(C)(C)C2=O)C1=O	inconclusive: -45%
O=C(C1CC1)N1CCN=C1SCc1ccc(Cl)cc1	inconclusive: -46.3%
CCOC(=O)c1sc(NC(NC(=O)c2ccco2)(C(=O)OC)C(F)(F)F)nc1C (stereo unspecified)	inconclusive: -50.8%
COc1ccccc1OCc1ccc(C(=O)NCc2ccco2)o1	active: -86.4%
COc1ccc(N(CC(=O)N2CCN(C)CC2)S(C)(=O)=O)cc1OC	inconclusive: -49.6%
Cn1c(=O)cc(N2CCc3ccccc32)[nH]c1=O	inconclusive: -77.8%
CSCCC(NC(=O)OCc1ccccc1)C(=O)O (stereo unspecified)	inconclusive: -35.8%
COc1cccc(-c2cc(C(=O)Nc3cccnc3)no2)c1	inconclusive: -35.9%

SMILES	activity change (PNC), negative = inhibition
O=C1CSC(c2cn(-c3ccccc3)nc2-c2cc3ccccc3oc2=O)N1Cc1cccnc1 (stereo unspecified)	inconclusive: -62.2%
CCC1CCCCN1S(=O)(=O)c1ccc(C(=O)Nc2nnc(-c3ccccc3Cl)o2)cc1 (stereo unspecified)	inactive: 13.2%
Cc1cc2ncc(Cl)nc2cc1C	inconclusive: -38.8%
CCO/C=N/c1c(C#N)c2c(c(=S)n1C)COC(C)(C)C2	inconclusive: -49.7%
Cc1ccc(OCC(=O)Nc2ccccc2Sc2ccc(Cl)cc2)c([N+](=O)[O-])n1	inconclusive: -31.8%
Cc1oc2c(cc(NS(=O)(=O)c3cccs3)c3ccccc32)c1C(=O)OC(C)C	inconclusive: -46.2%
Cc1ccc(-c2nnc(Oc3ccc(NC(=O)c4ccccc4)cc3)c3ccccc23)cc1	inactive: -28%
O=C(Nc1cc(C(F)(F)F)ccc1N1CCOCC1)c1ccco1	inactive: -13%
Cc1nn(C)c(C)c1CN(C)C(=O)c1nn2c(c1Br)NC(c1cccs1)CC2C(F)(F)F (stereo unspecified)	inconclusive: -37.8%
Cc1cc(NC(=O)CCN2CCC(C(N)=O)CC2)ccc1Br	inconclusive: -35.7%
COc1ccc(C)cc1S(=O)(=O)N(CC(=O)Nc1cccc([N+](=O)[O-])c1)c1ccccc1	inconclusive: -31.1%
CCn1c(Cn2nnc(-c3ccccc3)n2)nnc1SCC(=O)Nc1ccc(C(C)=O)cc1	inconclusive: -54.1%
CC1CCCC(C)N1S(=O)(=O)c1ccc(NC(=O)c2ccccc2C(=O)N2CCOCC2)cc1 (stereo unspecified)	inconclusive: -71.1%
Nc1nc(Nc2ccc(Cl)cc2Cl)nc(C(F)(F)F)n1	inconclusive: -72.5%
CC(NC(=O)C1CCCCC1)C(=O)NC1=NCCS1 (stereo unspecified)	active: -112%
O=C(N/N=C/c1c[nH]c2ccccc12)c1cc(-c2ccc3ccccc3c2)n[nH]1	active: -113%
C=C(C)C1CC=C(C)/C(=N/NC(=O)COc2ccccc2Cl)C1 (stereo unspecified)	inconclusive: -64.3%
COc1nc2cc(C)ccc2cc1-c1noc(-c2cccnc2)n1	inconclusive: -63.1%
O=C(CSc1ccccn1)c1ccc2c(c1)OCO2	inconclusive: -36.9%

In the list so far, these contain an NH in an aromatic ring:
SMILES	activity change (PNC), negative = inhibition
O=C(CSc1ncc(-c2ccccc2)[nH]1)Nc1cccc(O)c1	inconclusive: -58%
COc1ccc2[nH]cc(C(=O)CN3CCCCC3)c2c1	inactive: 20.8%
Cn1c(=O)cc(N2CCc3ccccc32)[nH]c1=O	inconclusive: -77.8%
O=C(N/N=C/c1c[nH]c2ccccc12)c1cc(-c2ccc3ccccc3c2)n[nH]1	active: -113%

(list continues)

SMILES	activity change (PNC), negative = inhibition
Cc1ccc(N=C2SC(C(=O)Nc3ccc(OC(F)(F)F)cc3)C(N)=C2C(=O)Nc2c(C)cc(C)cc2C)cc1 (stereo unspecified)	inconclusive: -73.9%
CC(C)C1C(C#N)=C(N)Oc2n[nH]c(-c3cccs3)c21 (stereo unspecified)	inconclusive: -71.5%
CCOc1ccc(C(=O)NCC(=O)OCc2ccc(F)cc2Cl)cc1	inactive: 6.04%
O=C(Cn1nc(C(F)F)cc1C1CC1)NCCC1=CCCCC1	inconclusive: -43.1%
COc1ccccc1NC(=S)N(Cc1ccco1)Cc1cc2cc(C)c(C)cc2[nH]c1=O	inconclusive: -57.8%
O=C(CSc1nnc(CN2CCOCC2)n1-c1ccccc1)Nc1ccc(Cl)cc1	inactive: 132%
CCn1c(SCC(=O)NCc2ccccc2)nnc1-c1ccccc1O	inconclusive: -68.9%
COC(=O)Cn1c2[n+](c3ccccc31)CC(O)CS2 (stereo unspecified)	inconclusive: -47.8%
Cc1cccc(C)c1NC(=O)CSCC(=O)c1ccc(O)c(O)c1	inconclusive: -39.6%
CCn1cc(CNC(=O)c2cc(-c3cc(OC)ccc3OC)nc3ccccc23)c(C)n1	inconclusive: -34.9%
CCCCn1nc2cc(C(=O)NCCc3cccs3)ccc2c1OCC	inconclusive: -66.3%
O=C(CN(c1ccccn1)S(=O)(=O)c1ccccc1)N/N=C/c1cccc([N+](=O)[O-])c1	inconclusive: -50.4%
CCc1[nH]nc2c1C1(CCN(C(=O)OCc3ccccc3)CC1)C(C#N)=C(N)O2	inconclusive: -44.7%
COc1ccc(C(=O)c2nc3c(n2O)CCCCC3)cc1	inconclusive: -40.1%
CCN(CC)S(=O)(=O)c1ccc(C(=O)NCc2n[nH]c(=S)n2-c2ccccc2OC)cc1	inactive: 17.8%
COc1ccc(NS(=O)(=O)c2ccc(SC)cc2)c(OC)c1	inconclusive: -57.6%
COCCNc1nnc(SCC(=O)c2ccc3c(c2)OCO3)s1	inconclusive: -58.5%
CCC(CC)C(=O)NCCc1cc2cc(C)c(C)cc2[nH]c1=O	inconclusive: -54.2%
